{
  "source": "paper PMC7819943",
  "about": "“Rice protein-binding microarrays: a tool to detect cis-acting elements near promoter regions in rice”",
  "note": "The list shows a part of the results.",
  "data": [
    {"target": "T1, OsSMF1 (Oryza sativa, UniProt Q6ZLB0 1-436)", "T1 sequence": "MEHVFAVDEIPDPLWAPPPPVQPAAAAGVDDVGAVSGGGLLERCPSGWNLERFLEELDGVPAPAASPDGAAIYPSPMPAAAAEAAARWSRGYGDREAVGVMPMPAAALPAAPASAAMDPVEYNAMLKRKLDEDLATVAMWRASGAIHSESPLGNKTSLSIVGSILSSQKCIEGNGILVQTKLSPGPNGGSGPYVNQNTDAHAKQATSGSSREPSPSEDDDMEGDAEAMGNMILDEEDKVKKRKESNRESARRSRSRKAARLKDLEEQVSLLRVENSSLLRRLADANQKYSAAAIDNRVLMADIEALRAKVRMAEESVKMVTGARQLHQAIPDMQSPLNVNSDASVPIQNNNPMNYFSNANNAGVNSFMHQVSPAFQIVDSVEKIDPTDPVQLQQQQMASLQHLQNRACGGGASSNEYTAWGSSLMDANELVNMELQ", "experiment": "protein-binding microarray (RPBM); PBS, 2% BSA, 51.3 ng/ul salmon testes DNA, 50 uM zinc acetate, 200 nM TF, 25 C, 1 h; high values mean tight binding", "conditions": "protein: recombinant; tags: N-terminal polyhistidine and DsRed monomer fusion (pET32a); chain copies: 2; label: CyDye5-dUTP incorporated in the synthesized complementary strand; 3' TTTTT single-stranded linker to array surface; dsDNA, one strand shown", "procedure,_shortened": "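Per-feature fluorescence intensity (arbitrary units), read on an Axon 4000B scanner, is the binding signal. Transcription factors carrying an N-terminal polyhistidine tag and DsRed fusion were expressed in E. coli BL21-CodonPlus and purified on Ni–NTA. A custom Agilent array, made double-stranded by primer extension with Cy5-dUTP and blocked with 2% BSA, was incubated with 200 nM protein in PBS, 2% BSA, salmon testes DNA and 50 µM zinc acetate at 25 °C for 1 h and then washed.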", "values": [
      {"sequence": "GTGGGTCTACCATTCAGCTCGCGACGCGTGTGCTTCCTGTCGGAGTCACCTAGTGCAG", "binding signal": "4250 fluorescence intensity (a.u.)"},
      {"sequence": "GATCTGTCTACACATGCATGACCCTCGCGAGACTCATCTCCGGAGTCACCTAGTGCAG", "binding signal": "3200 fluorescence intensity (a.u.)"},
      {"sequence": "GCCCGTGTGTACGTACGTTACGTTACTTCCTCGTGCCGTGCGGAGTCACCTAGTGCAG", "binding signal": "3500 fluorescence intensity (a.u.)"},
      {"sequence": "ATGTCAAAAGTTCCATTATTATACACACAATCTGCCTCTCCGGAGTCACCTAGTGCAG", "binding signal": "3150 fluorescence intensity (a.u.)"},
      {"sequence": "ACGAATGGTCAAACGTTGGTTAAAAGGTTAAATGCGTCATCGGAGTCACCTAGTGCAG", "binding signal": "3560 fluorescence intensity (a.u.)"},
      {"sequence": "CACGCTTCCGCCTTCCCATCGATGAGCTGGCGAGCTCGACCGGAGTCACCTAGTGCAG", "binding signal": "6370 fluorescence intensity (a.u.)"},
      {"sequence": "AATAGTTTGATATTTTATGACATACGTGGTAATAAAACGCCGGAGTCACCTAGTGCAG", "binding signal": "5760 fluorescence intensity (a.u.)"},
      {"sequence": "CTGCGAGAGCCAGTGGTGACGCCAGCGATGCGGGAGGAGGCGGAGTCACCTAGTGCAG", "binding signal": "4740 fluorescence intensity (a.u.)"},
      {"sequence": "AGCCGCCGTAATTCGTACTACACGGCAGCACAAAGTGTTCCGGAGTCACCTAGTGCAG", "binding signal": "3360 fluorescence intensity (a.u.)"},
      {"sequence": "CGGCCACTCCACCTAGTTGAATGCCCACTGGAGCTACTATCGGAGTCACCTAGTGCAG", "binding signal": "3160 fluorescence intensity (a.u.)"},
      {"sequence": "CGAGAGAAACAGAGCGGAACACGTGTCCTTTCGCTCTTCTCGGAGTCACCTAGTGCAG", "binding signal": "12500 fluorescence intensity (a.u.)"},
      {"sequence": "AGCGACGAATTCGTCAAACCCATCATCTCCTTCGCGCCGTCGGAGTCACCTAGTGCAG", "binding signal": "12300 fluorescence intensity (a.u.)"},
      {"sequence": "TGTAACATGTGGTCACCTCATACGTCATCATCGGAGAAGACGGAGTCACCTAGTGCAG", "binding signal": "8910 fluorescence intensity (a.u.)"},
      {"sequence": "CCGACAGTAGCCGTCGTCAGCTTCTTCGTTGGCACGCCGCCGGAGTCACCTAGTGCAG", "binding signal": "4830 fluorescence intensity (a.u.)"},
      {"sequence": "TTCTCTATTTGGTTTTGTCACTGGTCAATGCCACCAACTGCGGAGTCACCTAGTGCAG", "binding signal": "4140 fluorescence intensity (a.u.)"},
      {"sequence": "TAGAGAGCGGTTTTGCTGACGTGGCGTATACGTGACGGTACGGAGTCACCTAGTGCAG", "binding signal": "33100 fluorescence intensity (a.u.)"},
      {"sequence": "CACATTTGCCAGCACCGAGATCTCCAGAGCCAGATATTCCCGGAGTCACCTAGTGCAG", "binding signal": "3580 fluorescence intensity (a.u.)"},
      {"sequence": "GGGACGGGTAGTCCCGAAGAGAGGGAAGTGTCATCTTCGTCGGAGTCACCTAGTGCAG", "binding signal": "3370 fluorescence intensity (a.u.)"},
      {"sequence": "TAGATCCAAAACCAGCGAAATCTACACCAAATCCACGCGGCGGAGTCACCTAGTGCAG", "binding signal": "3240 fluorescence intensity (a.u.)"},
      {"sequence": "AGCTGGCTTCAATCTCCGGAAGATAGTCTTGTCATGCTAGCGGAGTCACCTAGTGCAG", "binding signal": "3170 fluorescence intensity (a.u.)"},
      {"sequence": "GATCGCCGCCGCTGCGGTGAAAGGGGTTTTCTTTATATAGCGGAGTCACCTAGTGCAG", "binding signal": "35000 fluorescence intensity (a.u.)"},
      {"sequence": "GATTGATGAGGCCGCAAAGCCTGGCTGCCTGCCTGCTTCTCGGAGTCACCTAGTGCAG", "binding signal": "54300 fluorescence intensity (a.u.)"},
      {"sequence": "CGCTGGCGTGGACGCGGCCGGGGCGCGACACGTCACGGGGCGGAGTCACCTAGTGCAG", "binding signal": "15300 fluorescence intensity (a.u.)"},
      {"sequence": "GGCCGTGATACGACATTTTGCCACGAGGGCCCAATATGGACGGAGTCACCTAGTGCAG", "binding signal": "4440 fluorescence intensity (a.u.)"},
      {"sequence": "GCCCCACCGCACGTGTCACTTGAACCTGTACTACGTACTACGGAGTCACCTAGTGCAG", "binding signal": "4690 fluorescence intensity (a.u.)"},
      {"sequence": "GAACTCTAGATTTTGATCCCATGAGTCATGAAAAGCACTCCGGAGTCACCTAGTGCAG", "binding signal": "6170 fluorescence intensity (a.u.)"},
      {"sequence": "AGATATGAGTTTTCTTTATGGGTTACTCCTACCTATTAGGCGGAGTCACCTAGTGCAG", "binding signal": "23300 fluorescence intensity (a.u.)"},
      {"sequence": "CCGTCGCCGCGCTGCGCCGGCGAGCGCCACGGGAGCAGCACGGAGTCACCTAGTGCAG", "binding signal": "4210 fluorescence intensity (a.u.)"},
      {"sequence": "TGCCCCATCCATATATTGCATACATACACACATGCTAGCTCGGAGTCACCTAGTGCAG", "binding signal": "3670 fluorescence intensity (a.u.)"},
      {"sequence": "TGCCATATCGCTGCAAAGTTGAAAGTTTTGTTTCAAGTTCCGGAGTCACCTAGTGCAG", "binding signal": "5270 fluorescence intensity (a.u.)"},
      {"sequence": "ATGGCGCCCATATATGCCACCGAGTCGTCCGCGGCTATCTCGGAGTCACCTAGTGCAG", "binding signal": "3920 fluorescence intensity (a.u.)"},
      {"sequence": "GATATGATATTGTAAGCTTATAAGATTTGATATGCATTAACGGAGTCACCTAGTGCAG", "binding signal": "25500 fluorescence intensity (a.u.)"},
      {"sequence": "TTTGGTTACATTACGGACACTTTTCAAGTTATCAGGTGTGCGGAGTCACCTAGTGCAG", "binding signal": "4420 fluorescence intensity (a.u.)"},
      {"sequence": "GTTCATATTAAAGCCCACGTAAAATAATTCTCAGCCCAACCGGAGTCACCTAGTGCAG", "binding signal": "3460 fluorescence intensity (a.u.)"},
      {"sequence": "TCCGTGACACCGTGACAGCGTGGACGTTCATAACCTTCCACGGAGTCACCTAGTGCAG", "binding signal": "9010 fluorescence intensity (a.u.)"},
      {"sequence": "ACGATGTGTAGTGTACATGTACACATATGGAGAGAGAGAGCGGAGTCACCTAGTGCAG", "binding signal": "4060 fluorescence intensity (a.u.)"},
      {"sequence": "TCACCGTTGGATTTGACCACAGTGACCCGTGACGTCTTTGCGGAGTCACCTAGTGCAG", "binding signal": "3560 fluorescence intensity (a.u.)"},
      {"sequence": "GAATCAATACCAGTATCACTTGTGCTAATAGTACTAGAGGCGGAGTCACCTAGTGCAG", "binding signal": "21800 fluorescence intensity (a.u.)"},
      {"sequence": "GAAGATCATGTCAAACACCTCCACGTAGTCGCCACGTTCACGGAGTCACCTAGTGCAG", "binding signal": "5580 fluorescence intensity (a.u.)"},
      {"sequence": "TTTCACATGAGATTTATCACATGTGAAGAAAAGGGGAAATCGGAGTCACCTAGTGCAG", "binding signal": "24000 fluorescence intensity (a.u.)"},
      {"sequence": "CTTCACTTCAGCTCACACCGGACAATTTCTAACGTTAGCTCGGAGTCACCTAGTGCAG", "binding signal": "3760 fluorescence intensity (a.u.)"},
      {"sequence": "TAGTACAAGTATATTTACGCGGTCTTTCGGTCTTTGTCCTCGGAGTCACCTAGTGCAG", "binding signal": "3700 fluorescence intensity (a.u.)"},
      {"sequence": "TTATCAGTTGATGATGTGATCAAGATTAGATGCAACATCCCGGAGTCACCTAGTGCAG", "binding signal": "3780 fluorescence intensity (a.u.)"},
      {"sequence": "AATGTGAGAAAGATGATGTAACATCCTTGTATGTTAAGCTCGGAGTCACCTAGTGCAG", "binding signal": "3220 fluorescence intensity (a.u.)"},
      {"sequence": "CCTTGTCCCTTGAACCTCATAGATGGGAATCATTATCAATCGGAGTCACCTAGTGCAG", "binding signal": "19700 fluorescence intensity (a.u.)"},
      {"sequence": "CTTCCTCTGAACCCACTGCAAGTGTGACAACACGCACCAGCGGAGTCACCTAGTGCAG", "binding signal": "4600 fluorescence intensity (a.u.)"},
      {"sequence": "CAAGTAGCGGCGTACGCTGCCACGCGGGGTGACAGCTTTGCGGAGTCACCTAGTGCAG", "binding signal": "5180 fluorescence intensity (a.u.)"},
      {"sequence": "TCATATTTGAGTGATGTGTCGGAGTTGTTTTCTATTGCGCCGGAGTCACCTAGTGCAG", "binding signal": "5630 fluorescence intensity (a.u.)"},
      {"sequence": "TGCGGGAGACGCGGCGCATGCGCGGGCGTGGCCGACGTGGCGGAGTCACCTAGTGCAG", "binding signal": "13000 fluorescence intensity (a.u.)"},
      {"sequence": "CGCACGATGATCATGTGTTGGTGTTGGCATGCAATGCAACCGGAGTCACCTAGTGCAG", "binding signal": "3780 fluorescence intensity (a.u.)"},
      {"sequence": "AGAAACCAAACTGGTTTGTTGTTCGTGTGGACACTGGACACGGAGTCACCTAGTGCAG", "binding signal": "3260 fluorescence intensity (a.u.)"},
      {"sequence": "CGTCGTGCCTACGGGCCGTTCGCGTGTCGTGTCGGCCCAACGGAGTCACCTAGTGCAG", "binding signal": "3850 fluorescence intensity (a.u.)"},
      {"sequence": "GTTCAATATACTAATTAGTGTGACATGGCTCTCATCATATCGGAGTCACCTAGTGCAG", "binding signal": "4420 fluorescence intensity (a.u.)"},
      {"sequence": "TCCTTTTATTCCCATCACTCCATTCATTGTTCTTGTTCTTCGGAGTCACCTAGTGCAG", "binding signal": "3190 fluorescence intensity (a.u.)"}
    ]}
  ]
}
